Consider 2 sequences from publication PMC6501013.

The chains behind the UniProt entries cited, without tags or fusion partners. Where a name states a change or a piece, a line headed by the entry shows the natural chain unless it says otherwise.
UniProt Q9BPX3: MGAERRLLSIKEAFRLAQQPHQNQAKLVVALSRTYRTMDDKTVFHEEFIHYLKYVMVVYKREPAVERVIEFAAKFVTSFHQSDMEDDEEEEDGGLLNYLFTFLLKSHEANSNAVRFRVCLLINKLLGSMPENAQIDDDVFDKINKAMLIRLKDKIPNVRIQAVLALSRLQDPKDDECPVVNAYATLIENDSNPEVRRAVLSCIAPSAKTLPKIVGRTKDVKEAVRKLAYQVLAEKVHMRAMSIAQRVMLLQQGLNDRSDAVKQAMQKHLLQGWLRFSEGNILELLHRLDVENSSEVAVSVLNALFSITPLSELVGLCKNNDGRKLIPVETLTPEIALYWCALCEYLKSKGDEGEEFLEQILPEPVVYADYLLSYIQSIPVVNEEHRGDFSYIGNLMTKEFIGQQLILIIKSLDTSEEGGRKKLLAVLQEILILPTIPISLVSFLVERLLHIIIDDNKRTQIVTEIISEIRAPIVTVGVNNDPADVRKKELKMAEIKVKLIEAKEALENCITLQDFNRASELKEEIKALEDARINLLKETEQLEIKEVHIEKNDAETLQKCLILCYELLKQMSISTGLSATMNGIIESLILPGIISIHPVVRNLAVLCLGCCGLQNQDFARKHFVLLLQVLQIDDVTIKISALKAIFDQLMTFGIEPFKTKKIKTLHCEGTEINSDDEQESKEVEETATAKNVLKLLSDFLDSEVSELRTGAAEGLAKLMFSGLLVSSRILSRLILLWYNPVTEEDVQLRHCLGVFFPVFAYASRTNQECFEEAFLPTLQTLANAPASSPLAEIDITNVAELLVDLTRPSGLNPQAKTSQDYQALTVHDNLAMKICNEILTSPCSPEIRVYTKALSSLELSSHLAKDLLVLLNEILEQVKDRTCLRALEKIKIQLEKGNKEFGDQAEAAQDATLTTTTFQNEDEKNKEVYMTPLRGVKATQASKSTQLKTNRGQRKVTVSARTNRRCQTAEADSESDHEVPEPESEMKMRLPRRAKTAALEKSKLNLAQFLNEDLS

Negatives hold for the conditions tested.

The target of this series is hCAP-G del479-553 (Homo sapiens) (UniProt Q9BPX3). The experiment in a line: EMSA. Conditions: CAP-G alone, DNA 6.7 uM, up to 1:4, EMSA: DNA 6.7 uM (FAM probe 1.7 uM), protein 1:1-1:4 (2 equivalents in competition), overnight at 4 C, 1% agarose at 4 C, binding buffer, recombinant protein, residues 1-900, protein details: N-terminal His6, label: none (GelRed stain).

On to “CCTATAGTGAGTCGTATTACAATTCACTCG [30-mer ssDNA]”, for which the binding result (single-stranded DNA) is on record as “no binding”.

In the case of “CCTATAGTGAGTCGTATTACAATTCACTCG (double strand) [30-bp dsDNA]”, the binding result was “no binding”.
